Experimental data as given in publication PMC7442798.
These are yes or no findings as the source states them, for the method shown. In cells and extracts the contact can be indirect. Binding can be weak; no strength is given.

Sequences of proteins named here, by UniProt entry; tags and fusion partners are left off. A change or cut given only in a name is not applied to a line headed by its entry.
UniProt Q96G74: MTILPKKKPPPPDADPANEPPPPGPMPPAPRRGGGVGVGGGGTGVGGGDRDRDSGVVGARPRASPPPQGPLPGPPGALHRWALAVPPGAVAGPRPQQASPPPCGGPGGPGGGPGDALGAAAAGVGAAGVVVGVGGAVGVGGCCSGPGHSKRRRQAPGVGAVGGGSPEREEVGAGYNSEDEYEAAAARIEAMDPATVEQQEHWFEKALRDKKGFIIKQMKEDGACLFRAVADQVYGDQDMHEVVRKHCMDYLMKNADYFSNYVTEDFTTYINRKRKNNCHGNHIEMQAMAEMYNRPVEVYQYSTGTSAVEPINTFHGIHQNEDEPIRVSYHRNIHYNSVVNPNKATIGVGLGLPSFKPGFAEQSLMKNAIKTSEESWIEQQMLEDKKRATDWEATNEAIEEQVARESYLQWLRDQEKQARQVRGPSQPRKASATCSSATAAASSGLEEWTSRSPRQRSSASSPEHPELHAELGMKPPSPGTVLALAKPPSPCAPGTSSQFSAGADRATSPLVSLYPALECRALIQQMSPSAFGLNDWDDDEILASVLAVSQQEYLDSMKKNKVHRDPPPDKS
UniProt Q14258: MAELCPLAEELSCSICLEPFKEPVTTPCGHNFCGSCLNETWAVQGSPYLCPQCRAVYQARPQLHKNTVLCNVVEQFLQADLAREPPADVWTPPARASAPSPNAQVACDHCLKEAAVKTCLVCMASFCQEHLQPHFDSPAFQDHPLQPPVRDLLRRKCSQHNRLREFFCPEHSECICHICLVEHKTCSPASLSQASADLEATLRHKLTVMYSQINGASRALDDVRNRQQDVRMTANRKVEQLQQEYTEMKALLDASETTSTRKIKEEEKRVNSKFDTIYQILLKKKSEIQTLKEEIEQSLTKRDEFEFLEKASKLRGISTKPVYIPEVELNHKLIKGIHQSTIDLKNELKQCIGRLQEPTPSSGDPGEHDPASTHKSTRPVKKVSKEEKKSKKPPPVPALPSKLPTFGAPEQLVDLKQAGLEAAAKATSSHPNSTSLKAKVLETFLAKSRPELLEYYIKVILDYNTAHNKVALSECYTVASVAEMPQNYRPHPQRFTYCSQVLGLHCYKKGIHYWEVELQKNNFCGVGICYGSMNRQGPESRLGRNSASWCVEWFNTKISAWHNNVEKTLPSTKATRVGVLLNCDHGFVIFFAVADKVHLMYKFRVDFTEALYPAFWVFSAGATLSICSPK

Target: Flag-tagged OTUD5 with the UIM domain deleted (human) (UniProt Q96G74)
Experiment: co-IP; Hep3B cells transfected with Flag-OTUD5-WT or Flag-OTUD5-ΔUIM; TRIM25 coprecipitated with the Flag-tagged protein

For “TRIM25 E3 ubiquitin ligase (from UniProt Q14258 1-630)”, the binding was “binds”.
